Values quoted from earlier work as cited in publication PMC5858514 (Theranostics, 2018).
In brackets after ≈: the same amount, converted by molar mass.

Conditions: not among the compounds measured, no reference given; cited from earlier work

CC(=O)O[C@H]1C(=O)[C@@]2(C)[C@H]([C@H](OC(=O)c3ccccc3)[C@]3(O)C[C@H](OC(=O)[C@H](O)[C@@H](NC(=O)c4ccccc4)c4ccccc4)C(C)=C1C3(C)C)[C@]1(OC(C)=O)CO[C@@H]1C[C@@H]2O [PTX, paclitaxel]
water solubility: ~0.4 µg/mL (≈ 0.468 µM)
